{"source": "PubChem BioAssay AID504834", "about": "(National Center for Advancing Translational Sciences (NCATS), 2011)", "note": "The campaign covered roughly 320,000 compounds. About 22,000 (6.9%) were called active. Inconclusive results, whose numbers are uncertain, are shown with a selection of clear calls. Calls follow the shape of the dose curve; as a rule, active = well fitted inhibition curve with a large enough effect; inconclusive = small, poorly fitted or top-dose-only effect, or another doubt; inactive = no such curve, though single readings can be large or run the other way. Where the call is inconclusive, the potency comes from a doubtful curve fit. Potency is read from the fitted curve at half-maximal effect."}
{"assay": "Primary qHTS for delayed death inhibitors of the malarial parasite plastid, 96 hour incubation", "conditions": "P. falciparum luciferase reporter growth; series mostly up to 28.7 µM", "in_short": "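Delayed-death screen, second-generation endpoint: infected erythrocytes, 2% hematocrit, 0.05% parasitemia final; 96 hours at 37 C, 5% CO2; luciferase detection reagent; luminescence decrease equals reduced growth.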"}
{"smiles": "CCOc1ccc(C(C)=O)cc1COc1ccc(C)nc1[N+](=O)[O-]", "Potency": "inactive"}
{"smiles": "O=C(CNc1ccccc1F)Nc1cccc(S(=O)(=O)N2CCCCC2)c1", "Potency": "inconclusive: 18.5 µM [inhibitor, single point]"}
{"smiles": "CN(C)c1cc(-c2ccccc2)nc(-c2ccccc2)n1", "Potency": "inactive"}
{"smiles": "CCOc1ccccc1C(=O)Nc1cc(C(=O)NCC(C)C)ccc1Cl", "Potency": "active: 1.65 µM"}
{"smiles": "COc1ccccc1-c1nc(C#N)c(N2CCC(C(N)=O)CC2)o1", "Potency": "inconclusive: 18.5 µM [inhibitor, single point]"}
{"smiles": "CCOc1ccc(S(=O)(=O)NCc2cccnc2)cc1C(C)C", "Potency": "inactive"}
{"smiles": "O=C(COc1ccc(Cl)c(Cl)c1)NC1CCS(=O)(=O)C1", "note": "(stereo unspecified)", "Potency": "inconclusive: 4.15 µM [inhibitor, partial curve]"}
{"smiles": "O=C(Oc1cc(=O)oc2c1c(=O)n1c3c(cccc23)CC1)c1ccc(F)cc1", "Potency": "inactive"}
{"smiles": "NC(=O)c1ccccc1N=Cc1ccccn1", "Potency": "inconclusive: 16.5 µM [inhibitor, single point]"}
{"smiles": "CCOc1ccc(CNC(=O)CCCn2nc(C)c3c(C)n(-c4ccc(C)cc4)nc3c2=O)cc1", "Potency": "inactive"}
{"smiles": "Cc1ccc(S(=O)(=O)c2nnn3c2nc(N2CCN(c4ccccn4)CC2)c2ccccc23)cc1", "Potency": "inconclusive: 18.5 µM [inhibitor, single point]"}
{"smiles": "COC(=O)c1c(NC(=O)c2cccc(N3C(=O)CCC3=O)c2)sc2c1CCN(C(C)=O)C2", "Potency": "active: 9.28 µM"}
{"smiles": "COC(=O)c1ccc(C(C(=O)NC2CCCCC2)N(Cc2ccc(F)cc2)C(=O)Cc2cccs2)cc1", "note": "(stereo unspecified)", "Potency": "inconclusive: 4.15 µM [inhibitor, single point]"}
{"smiles": "Cc1cc(/C=N/NC(=O)c2nn(C)cc2Cl)c(C)n1-c1cccc(Br)c1", "Potency": "inconclusive: 18.5 µM [inhibitor, single point]"}
{"smiles": "NC(=O)CC(NC(=O)c1ccccc1)c1ccc(N2CCN(c3ccccn3)CC2)c([N+](=O)[O-])c1", "note": "(stereo unspecified)", "Potency": "inconclusive: 0.117 µM [inhibitor, full curve, poor fit]"}
{"smiles": "COc1ccc(CCNC2CCN(C)CC2)cc1OC", "Potency": "inconclusive: 10.4 µM [inhibitor, partial curve, poor fit]"}
{"smiles": "CC1CCCN(CC(=O)c2ccc(Cl)c(Cl)c2)C1", "note": "(stereo unspecified)", "Potency": "inconclusive: 14.7 µM [inhibitor, single point]"}
{"smiles": "CCOC(=O)N1CCN(C/C(C)=C/c2ccccc2)CC1", "Potency": "inactive"}
{"smiles": "O=C(c1ccncc1)c1ccc(NS(=O)(=O)c2ccc(Br)s2)cc1", "Potency": "inactive"}
{"smiles": "CCCn1c(O)c(C=Nc2ccccc2)sc1=S", "Potency": "inconclusive: 2.62 µM [inhibitor, single point]"}
{"smiles": "COC(=O)c1ccc(NC(=S)NC2CC2)cc1", "Potency": "inconclusive: 11.7 µM [inhibitor, partial curve]"}
{"smiles": "COc1ccc(C(=O)N/C(=C/c2ccc(Cl)cc2)C(=O)Nc2ccc(C(=O)O)cc2)cc1", "Potency": "inconclusive: 9.28 µM [inhibitor, partial curve, poor fit]"}
{"smiles": "CCOn1c(=O)c(-c2cccc(Br)c2)[n+]([O-])c2ccccc21", "Potency": "inconclusive: 16.5 µM [inhibitor, single point]"}
{"smiles": "CCC(Cc1ccccc1)NS(=O)(=O)c1ccc2c(c1)NC(=O)C(C)S2", "note": "(stereo unspecified)", "Potency": "active: 14.7 µM"}
{"smiles": "O=C(NC(Nc1nc2ccc([N+](=O)[O-])cc2s1)(C(F)(F)F)C(F)(F)F)c1cccnc1", "Potency": "inconclusive: 1.85 µM [inhibitor, full curve, poor fit]"}
{"smiles": "COc1ccccc1C(=O)Nc1ccc2c(c1)nc1n2CCSC1", "Potency": "inactive"}
{"smiles": "CC1CN(C(c2cccs2)c2sc3ncnn3c2O)CC(C)O1", "note": "(stereo unspecified)", "Potency": "inconclusive: 0.828 µM [inhibitor, full curve, poor fit]"}
{"smiles": "COc1ccccc1CNC(=O)c1cc(S(=O)(=O)N2CCCC2)cn1C", "Potency": "inconclusive: 9.28 µM [inhibitor, single point]"}
{"smiles": "CCCCN(C(=O)CC(c1ccccc1)c1ccccc1)c1c(N)n(CCC)c(=O)[nH]c1=O", "Potency": "inconclusive: 13.1 µM [inhibitor, single point]"}
{"smiles": "CCc1ccc(OCC(O)CN2CCN(c3ccc(OC)cc3)CC2)cc1", "note": "(stereo unspecified)", "Potency": "inconclusive: 7.38 µM [inhibitor, partial curve, poor fit]"}
{"smiles": "Cc1c(S(=O)(=O)N(C)C2CCCCC2)c(=O)n(C)c(=O)n1C", "Potency": "inactive"}
{"smiles": "Cc1cc2cc(OCC(=O)O)ccc2n1C", "Potency": "inconclusive: 10.4 µM [inhibitor, single point]"}
{"smiles": "Cc1cccc(C(=O)NC2CCN(CC(=O)NCc3cccs3)CC2)c1", "Potency": "inconclusive: 11.7 µM [inhibitor, partial curve]"}
{"smiles": "Cc1ccc(S(=O)(=O)Nc2ccc(-n3cnnn3)cc2)cc1", "Potency": "active: 11.7 µM"}
{"smiles": "COc1ccc2cc(C(=O)O)n(CC(=O)c3ccccc3)c2c1", "Potency": "inconclusive: 1.85 µM [inhibitor, single point]"}
{"smiles": "Cc1ccc(-c2nc3ccccc3n3c(C)nnc23)cc1", "Potency": "inactive"}
{"smiles": "COc1ccc(C)cc1NC(=O)C1CCCN1S(=O)(=O)c1ccc2c(c1)CCC(=O)N2", "note": "(stereo unspecified)", "Potency": "inconclusive: 18.5 µM [inhibitor, single point]"}
{"smiles": "O=C(Nc1nnc(SCC(=O)N2CCOCC2)s1)C1CC(=O)N(c2ccccc2)C1", "note": "(stereo unspecified)", "Potency": "inconclusive: 9.28 µM [inhibitor, partial curve, poor fit]"}
{"smiles": "O=[N+]([O-])c1ccc(Cl)c(/C=N/N2CCN(Cc3ccccc3Cl)CC2)c1", "Potency": "inactive"}
{"smiles": "C/C(=N\\NC(=O)c1cc(C(C)C)[nH]n1)c1ccco1", "Potency": "inactive"}
{"smiles": "COc1ccc(/C=N/NC(=O)c2ccc(COc3cccc4cccnc34)cc2)cc1OC", "Potency": "inconclusive: 18.5 µM [inhibitor, single point]"}
{"smiles": "COc1ccc(S(=O)(=O)N(CC(=O)NC2CCCCC2)c2ccc(F)cc2)cc1", "Potency": "active: 7.38 µM"}
{"smiles": "COc1ccccc1Sc1ccccc1/C=N/NC(N)=O", "Potency": "inconclusive: 18.5 µM [inhibitor, single point]"}
{"smiles": "C=C(C)C1Cc2c(C)nn(-c3nc(C)cc(C)n3)c2C1", "note": "(stereo unspecified)", "Potency": "active: 13.1 µM"}
{"smiles": "CC1=NN(C(N)=S)C(C)(C)C1", "Potency": "inactive"}
{"smiles": "C/C(=N\\NC(=S)Nc1ccc(F)cc1)C1CC1", "Potency": "active: 11.7 µM"}
